Changes are numbered by the printed parent chain. Names and notes keep the numbering of the source. These are yes or no findings as the source states them, for the method shown. For part of these data: In cells and extracts the contact can be indirect. For part of these data: A result given as binding can be weak or reduced; the word gives no strength. Sequences can lack the tags named with a protein. One block for each molecule: values may come before it.
Columns and labels:
[1] = biological target: T1, KRP3 fused to the GAL4 DNA binding domain (rice (Oryza sativa)) (UniProt Q2R185); assay: two-hybrid
T1 sequence: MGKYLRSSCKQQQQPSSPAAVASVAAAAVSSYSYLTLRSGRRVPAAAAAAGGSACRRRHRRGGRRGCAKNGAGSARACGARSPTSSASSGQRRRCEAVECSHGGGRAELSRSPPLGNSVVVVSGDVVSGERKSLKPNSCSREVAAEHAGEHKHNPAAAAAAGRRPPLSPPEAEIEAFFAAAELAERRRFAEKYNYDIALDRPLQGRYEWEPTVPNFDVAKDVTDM

[2] = biological target: T2, GST-KRP3 (rice (Oryza sativa)) (UniProt Q2R185); assay: pull-down
T2 sequence: T1 sequence

[3] = biological target: CycD2 fused to a YFP fragment (pSITE-cEYFP-N1) (rice (Oryza sativa)); assay: split reporter

Molecule: MPK4 fused to the GAL4 activation domain (rice) (enzyme)
binding [1]: no binding

Molecule: MPK6 fused to the GAL4 activation domain (rice) (enzyme)
binding [1]: no binding

B1: KRP3^EE (KRP3^S17E,S82E, phospho-mimetic) fused to a YFP fragment (protein, UniProt Q2R185 1-225)
chain: T1 sequence with S17E, S82E
binding [3]: binds

Next, values leading:

binding [2]: no binding
Molecule: 6xHis-MPK6 (rice) (enzyme)

binding [2]: no binding
Molecule: 6xHis-MPK4 (rice) (enzyme)

binding [3]: binds
B2: KRP3^AA (KRP3^S17A,S82A, phospho-dead) fused to a YFP fragment (protein, UniProt Q2R185 1-225)
chain: T1 sequence with S17A, S82A
